In PMC5062938, “Variation in ligand responses of the bitter taste receptors TAS2R1 and TAS2R4 among New World monkeys” (BMC Evolutionary Biology, 2016):

In the case of COc1cc2c(c(OC)c1OC)-c1ccc(OC)c(=O)cc1[C@@H](NC(C)=O)CC2 [colchicine], the EC50 (TAS2R4 (marmoset)) is reported as 67 µM and the EC50 (TAS2R4 (howler monkey)) is reported as 80 µM.
